Assay results

Data taken from PubChem BioAssay AID1224904, deposited by Broad Institute (2016).

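Control-channel Italica luciferase signal in doxycycline-induced 293T-iDUX4 cells, given as percent activity after a 24-hour treatment.
The test concentration is not given here.
Percent change in the Italica control signal; more negative values mean stronger inhibition, which points to nonspecific, tet-on or cytotoxic effects.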

Values are in %.
Common to all entries: measured here: Italica tet-on control reporter.
Part of the compounds only, not a random draw; the main read-out is not listed here.

Compound,activity change (%)
COCC(=O)N1CC[C@@H]2[C@H](CO)Nc3ccc(-c4cccc(C#N)c4)cc3[C@@H]21,-3.152
CN1c2ccc(-c3cccc(F)c3)cc2[C@@H]2[C@@H](CCN2C(=O)Cc2ccccc2)[C@H]1CO,0.04564
COc1ccc(NC(=O)N2CCCCN3[C@H](C2)[C@@H](c2ccc(C#CCC(C)C)cc2)[C@@H]3CO)cc1,-52.99
COc1ccc2c3c([nH]c2c1)[C@@H](CO)N(S(C)(=O)=O)CC31CCN(Cc2cccc(F)c2)CC1,-75.31
COc1ccc2c3c([nH]c2c1)[C@@H](CO)N(C(=O)C1CCOCC1)CC31CCN(Cc2cccc(F)c2)CC1,-63.75
C[C@H]1CN([C@@H](C)CO)C(=O)c2c(c3ccccc3n2C)-c2ccccc2CO[C@H]1CN(C)C(=O)c1ccc(F)cc1,-58.21
Cc1ccc(-c2ccc([C@@H]3[C@@H](CO)N4C(=O)CN(C(=O)Nc5cccc(F)c5)C[C@@H]34)cc2)cc1,-89.03
CN(C)C(=O)c1ccc(-c2ccc3c(c2)[C@H]2[C@H](CCN2S(=O)(=O)c2ccccc2)[C@H](CO)N3)cc1,-27.64
CCCC#Cc1ccc([C@@H]2[C@H]3CN(S(=O)(=O)c4ccccc4C)CC(=O)N3[C@H]2CO)cc1,-20.09
O=C(C1CCCC1)N1[C@@H](CO)[C@@H](c2ccccc2)C12CN(Cc1ccc(F)cc1)C2,-16.19
CO[C@@H]1CN(C)C(=O)c2cc(NC(=O)C3CC3)ccc2OC[C@H](C)N(Cc2cc(F)ccc2F)C[C@@H]1C,-1.492
Fc1cccc(-c2ccc(C3[C@@H]4CN(Cc5ccccc5F)C[C@H]3N4)cc2)c1 (stereo partly drawn),-4.222
C[C@H]1CN([C@@H](C)CO)C(=O)c2ccccc2-c2ccccc2CO[C@H]1CN(C)C(=O)Nc1cccc(Cl)c1Cl,-32.76
O=C(C[C@@H]1C=C[C@H](NC(=O)c2ccncc2)[C@H](CO)O1)NCC1CC1,2.594
N#Cc1cccc(-c2ccc([C@@H]3[C@@H](CO)N4CCCCN(Cc5ccccc5F)C[C@@H]34)cc2)c1,-13.78
CCCNC(=O)[C@H]1[C@H](CO)[C@H]2Cn3c(ccc(-c4ccc(F)cc4)c3=O)[C@@H]1N2Cc1ccccc1F,-5.788
COc1ccc(CN2CC3(CCN(C(=O)C4CCC4)CC3)c3c(n(C)c4cc(OC)ccc34)[C@H]2CO)cc1,-8.852
COc1ccc2c3c([nH]c2c1)[C@H](CO)N(C(=O)Nc1cccc(F)c1)CC31CCN(S(=O)(=O)c2cccc(C)c2)CC1,-87.67
CCS(=O)(=O)N1CC2(CN(C(=O)Nc3cccc(F)c3)[C@@H](CO)c3c2c2ccc(OC)cc2n3C)C1,-7.898
COc1ccc(S(=O)(=O)N2CC[C@@H]3[C@H]2c2cc(-c4cccc(C#N)c4)ccc2N[C@@H]3CO)cc1,-28.42
OC[C@H]1[C@@H](c2ccc(-c3ccccc3F)cc2)[C@@H]2CN(Cc3ccncc3)CCCCN12,-14.39
COc1ccc(NC(=O)Nc2ccc3c(c2)C(=O)N([C@H](C)CO)C[C@@H](C)[C@H](CN(C)S(=O)(=O)c2c(C)noc2C)OCCCC[C@@H](C)O3)cc1,-40.34
CO[C@H]1CN(C)C(=O)c2ccc(NC(=O)c3nc4ccccc4s3)cc2OC[C@H](C)N(Cc2cccnc2)C[C@H]1C,-39.08
O=C(c1cccnc1)N1CC(=O)N2[C@H](C1)[C@@H](c1ccc(C#CCC3CCCC3)cc1)[C@@H]2CO,-21.34
CN(C)C(=O)c1ccc(-c2ccc3c(c2)[C@@H]2[C@@H](CCN2C(=O)c2ccccc2F)[C@@H](CO)N3)cc1,-25.88
CCC(=O)N1[C@H](CO)[C@@H](c2ccccc2)C12CN(Cc1ccccc1F)C2,-12.43
C[C@H]1CN([C@@H](C)CO)C(=O)c2c(c3ccccc3n2C)-c2ccccc2CO[C@@H]1CN(C)C(=O)Nc1ccccc1C(F)(F)F,-16.03
COc1cccc(-c2ccc3c(c2)[C@@H]2[C@@H](CCN2C(=O)C2CCCCC2)[C@H](CO)N3)c1,-70.65
C[C@@H]1CN([C@@H](C)CO)C(=O)CCCn2nncc2CO[C@@H]1CN(C)Cc1ccc(-c2ccccc2)cc1,-12.91
CCS(=O)(=O)N1CCC2(CC1)CN(Cc1ccccc1F)[C@H](CO)c1c2c2ccc(OC)cc2n1C,-29.69
C[C@H](CO)N1C[C@H](C)[C@@H](CN(C)S(=O)(=O)c2ccc([N+](=O)[O-])cc2)OCc2ccccc2-c2c(n(C)c3ccccc23)C1=O,-5.306
COc1ccc(C#Cc2ccc([C@H]3[C@@H](CO)N4CCCCN(Cc5ccncc5)C[C@@H]34)cc2)cc1,-21.82
O=C(C[C@H]1C[C@@H]2c3cc(NC(=O)c4ccc5c(c4)OCO5)ccc3O[C@@H]2[C@@H](CO)O1)NCC(F)(F)F,-7.597
O=C(Cc1ccccc1)N1CC[C@@H]2[C@@H](CO)Nc3ccc(-c4ccc(F)cc4)cc3[C@@H]21,-16.96
CCCNC(=O)N1C[C@@H]2N[C@H](C1)C2c1ccc(-c2ccccc2C)cc1 (stereo partly drawn),-3.542
O=C(c1ccccc1)N1CC(=O)N2[C@H](CO)[C@H](c3ccc(/C=C/c4ccccc4)cc3)[C@H]2C1,-26.86
COc1ccc2c3c([nH]c2c1)[C@@H](CO)N(Cc1cccc(F)c1)CC31CN(C(C)=O)C1,-58.01
O=C(C[C@@H]1CC[C@@H]2[C@H](COC[C@@H](O)CN2Cc2ccc(Oc3ccccc3)cc2)O1)Nc1nccs1,-29.58
O=C(C[C@@H]1C[C@@H]2c3cc(NC(=O)C4CCOCC4)ccc3O[C@@H]2[C@@H](CO)O1)NCc1ccc(Oc2ccccc2)cc1,-10.05
COc1cccc(-c2ccc3c(c2)[C@H]2[C@H](CCN2C(=O)C2CCCCC2)[C@H](CO)N3)c1,-67.69
O=C(C1CCOCC1)N1CC(=O)N2[C@H](C1)[C@@H](c1ccc(/C=C/c3ccccc3)cc1)[C@@H]2CO,-20.15
O=C(Nc1cccc(F)c1)N1CCCCN2[C@@H](CO)[C@@H](c3ccc(C#CC4CC4)cc3)[C@@H]2C1,-86.1
O=C(Nc1ccc2c(c1)[C@H]1C[C@H](CC(=O)N3CCc4ccccc4C3)O[C@H](CO)[C@H]1O2)c1cccnc1,-7.457